We go through 14 molecules from patent US20250066691A1, “SOLVENT-BASED DETERGENT COMPOSITIONS AND METHODS FOR HYDROPHOBIC SOIL REMOVAL” (ECOLAB USA INC., priority 2023, published 2025).

Structures can show the parent of a compound that is named as a salt.

This data set can be described thus: Soiled coupon cleaning method, lipstick soil on stainless steel coupons (Example 1). The following applies: composition with the named solvent, approx. 4% concentration, 30 minutes, 140° F. (60° C.), agitation, observed every 5 minutes.

Regarding `CCCCC(CC)COCCO` (stereo not drawn) [2-2(2-Ethylhexyloxy)ethanol], the “Visual Result (visual rating of soil removal, 1=no soil removal, 5=complete soil removal, averaged over observations)” value amounted to 1.71. For `CCCCC(CC)COC(=O)[C@H](C)O` (stereo partly drawn) [2-Ethylhexyl Lactate, 2-Ethylhexyl L-Lactate], the “Visual Result (visual rating of soil removal, 1=no soil removal, 5=complete soil removal, averaged over observations)” value is 3.29. Same read-out and setting: the value for `OCc1ccccc1` [Benzyl Alcohol] was 1.

For `CCCCCCOCCOCCO` [Diethylene glycol monohexyl ether], the “Visual Result (visual rating of soil removal, 1=no soil removal, 5=complete soil removal, averaged over observations)” value is given as 1. Still for that read-out and setting: the value for `CC(C)COC(=O)CCCCC(=O)OCC(C)C` [Diisobutyl Adipate] was 1.

`CCCCCCCCCCCCO` [Dodecanol (Lauryl Alcohol), Dodecanol]: the “Visual Result (visual rating of soil removal, 1=no soil removal, 5=complete soil removal, averaged over observations)” value worked out at 1.

As for `CCOC(=O)C(C)O` (stereo not drawn) [Ethyl Lactate], the “Visual Result (visual rating of soil removal, 1=no soil removal, 5=complete soil removal, averaged over observations)” value came out at 1. On the same count and under the same terms, in the case of `CC(=O)OCC(COC(C)=O)OC(C)=O` [Glycerol Triacetate] it was 1. The same measure, in the same setting: in the case of `C=C(C)[C@H]1CC=C(C)CC1` [Limonene] it was 1; in that of `CCCCCCCC(=O)O` [Octanoic acid], 1.29; in that of `CC(O)COc1ccccc1` (stereo not drawn) [Propylene glycol phenyl ether], 1. As for `Cc1ccccc1` [Toluene], the “Visual Result (visual rating of soil removal, 1=no soil removal, 5=complete soil removal, averaged over observations)” value is given as 1. Besides, the “Visual Result (visual rating of soil removal, 1=no soil removal, 5=complete soil removal, averaged over observations)” value (listed as toluene) is “no efficacy”. With `CCOC(=O)CC(O)(CC(=O)OCC)C(=O)OCC` [Triethyl Citrate], the “Visual Result (visual rating of soil removal, 1=no soil removal, 5=complete soil removal, averaged over observations)” value is on record as 1. Same read-out and setting: the value for `CCCCOC(C)COC(C)COC(C)CO` (stereo not drawn) [Tripropylene glycol butyl ether] was 3.
